These are yes or no findings as the source states them, for the method shown. Binding seen in cells or lysates may run through a third protein. Here binding means that the protein was enriched with, or labelled near, the bait; the list need not be complete.
Target: T1, high mobility group box 2 (HMGB2), endogenous mouse (mouse (endogenous in neonatal mouse myocardium and NMCMs)) (UniProt P30681)
T1 sequence: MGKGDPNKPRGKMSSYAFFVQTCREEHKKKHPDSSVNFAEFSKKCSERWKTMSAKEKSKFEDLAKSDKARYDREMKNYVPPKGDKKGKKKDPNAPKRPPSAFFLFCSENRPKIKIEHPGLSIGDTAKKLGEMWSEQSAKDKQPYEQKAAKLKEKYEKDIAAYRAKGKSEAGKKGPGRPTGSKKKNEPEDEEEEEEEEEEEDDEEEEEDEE
Assay: affinity purification with mass spectrometry; immunoprecipitation of HMGB2 from the myocardium of P1 mice following apical resection; SDS-PAGE, silver staining, mass spectrometry

Sequences of proteins named here, by UniProt entry; tags and fusion partners are left off.
UniProt Q9R190: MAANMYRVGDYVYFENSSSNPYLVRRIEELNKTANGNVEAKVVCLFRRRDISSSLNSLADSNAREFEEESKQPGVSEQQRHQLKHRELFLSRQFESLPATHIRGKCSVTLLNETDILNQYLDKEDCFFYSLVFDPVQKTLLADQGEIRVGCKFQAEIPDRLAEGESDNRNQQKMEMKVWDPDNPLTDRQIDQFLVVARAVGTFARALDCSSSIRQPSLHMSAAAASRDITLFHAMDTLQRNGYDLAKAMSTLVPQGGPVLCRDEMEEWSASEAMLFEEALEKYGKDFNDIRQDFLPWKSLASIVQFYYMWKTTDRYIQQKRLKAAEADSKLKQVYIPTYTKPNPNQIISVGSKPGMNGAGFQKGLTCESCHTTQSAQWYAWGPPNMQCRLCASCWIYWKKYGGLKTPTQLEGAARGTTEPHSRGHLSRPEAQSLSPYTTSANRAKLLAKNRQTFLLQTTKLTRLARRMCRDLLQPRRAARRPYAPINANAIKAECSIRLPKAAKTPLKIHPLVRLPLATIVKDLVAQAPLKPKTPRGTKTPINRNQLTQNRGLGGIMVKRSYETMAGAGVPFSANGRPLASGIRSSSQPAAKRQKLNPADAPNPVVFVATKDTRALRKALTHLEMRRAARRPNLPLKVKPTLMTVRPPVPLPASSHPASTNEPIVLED

- binding: binds
Substance: metastasis‐associated protein 2 (MTA2), endogenous mouse (from UniProt Q9R190 1-668)

Source: paper PMC12767070
